Assay results published in PMC4016012, “Successful Conversion of the Bacillus subtilis BirA Group II Biotin Protein Ligase into a Group I Ligase” (PLoS ONE, 2014).
These are yes or no findings as the source states them, for the method shown. Where a sequence is shown, tags or fusion partners need not be part of it.

Biological target: B. subtilis N-terminally hexahistidine-tagged BirA (Bacillus subtilis) (UniProt P0CI75)
Assay: condition: only without biotin and ATP (BirA 30 µM); cross-linking; purified BirA 30 µM in 50 mM HEPES pH 7.5, 500 mM NaCl, 0.1 mM TCEP, 5% glycerol; without biotin and ATP, room temperature 30 min; EGS 0.125-0.5 mM, room temperature 30 min; SDS-PAGE on 4-20% gels; both purified

B1: B. subtilis N-terminally hexahistidine-tagged BirA (enzyme, Bacillus subtilis, UniProt P0CI75 1-325, looked up)
chain: MRSTLRKDLIELFSQAGNEFISGQKISDALGCSRTAVWKHIEELRKEGYEVEAVRRKGYRLIKKPGKLSESEIRFGLKTEVMGQHLIYHDVLSSTQKTAHELANNNAPEGTLVVADKQTAGRGRMSRVWHSQEGNGVWMSLILRPDIPLQKTPQLTLLAAVAVVQGIEEAAGIQTDIKWPNDILINGKKTVGILTEMQAEEDRVRSVIIGIGINVNQQPNDFPDELKDIATSLSQAAGEKIDRAGVIQHILLCFEKRYRDYMTHGFTPIKLLWESYALGIGTNMRARTLNGTFYGKALGIDDEGVLLLETNEGIKKIYSADIELG
notes: 325 residues by the names of the constructs (64-325 etc.); no step that removes the tag is described; The vector is pET19b, whose own tag may be longer than six histidines and is followed by a linker (surmise); also called wild type BirA; B. subtilis BirA; source: E. coli BL21 (λ DE3) with pSKH001, purified (Ni NTA)
binding: no binding
